Measured values as given in doi:10.1101/2021.10.28.466285.
These are yes or no findings as the source states them, for the method shown. Binding seen in cells or lysates may run through a third protein. Some binding calls cover weakened binding; strength is not graded here.

By UniProt entry, the sequences of proteins in these tests, tags left out.
UniProt Q14839: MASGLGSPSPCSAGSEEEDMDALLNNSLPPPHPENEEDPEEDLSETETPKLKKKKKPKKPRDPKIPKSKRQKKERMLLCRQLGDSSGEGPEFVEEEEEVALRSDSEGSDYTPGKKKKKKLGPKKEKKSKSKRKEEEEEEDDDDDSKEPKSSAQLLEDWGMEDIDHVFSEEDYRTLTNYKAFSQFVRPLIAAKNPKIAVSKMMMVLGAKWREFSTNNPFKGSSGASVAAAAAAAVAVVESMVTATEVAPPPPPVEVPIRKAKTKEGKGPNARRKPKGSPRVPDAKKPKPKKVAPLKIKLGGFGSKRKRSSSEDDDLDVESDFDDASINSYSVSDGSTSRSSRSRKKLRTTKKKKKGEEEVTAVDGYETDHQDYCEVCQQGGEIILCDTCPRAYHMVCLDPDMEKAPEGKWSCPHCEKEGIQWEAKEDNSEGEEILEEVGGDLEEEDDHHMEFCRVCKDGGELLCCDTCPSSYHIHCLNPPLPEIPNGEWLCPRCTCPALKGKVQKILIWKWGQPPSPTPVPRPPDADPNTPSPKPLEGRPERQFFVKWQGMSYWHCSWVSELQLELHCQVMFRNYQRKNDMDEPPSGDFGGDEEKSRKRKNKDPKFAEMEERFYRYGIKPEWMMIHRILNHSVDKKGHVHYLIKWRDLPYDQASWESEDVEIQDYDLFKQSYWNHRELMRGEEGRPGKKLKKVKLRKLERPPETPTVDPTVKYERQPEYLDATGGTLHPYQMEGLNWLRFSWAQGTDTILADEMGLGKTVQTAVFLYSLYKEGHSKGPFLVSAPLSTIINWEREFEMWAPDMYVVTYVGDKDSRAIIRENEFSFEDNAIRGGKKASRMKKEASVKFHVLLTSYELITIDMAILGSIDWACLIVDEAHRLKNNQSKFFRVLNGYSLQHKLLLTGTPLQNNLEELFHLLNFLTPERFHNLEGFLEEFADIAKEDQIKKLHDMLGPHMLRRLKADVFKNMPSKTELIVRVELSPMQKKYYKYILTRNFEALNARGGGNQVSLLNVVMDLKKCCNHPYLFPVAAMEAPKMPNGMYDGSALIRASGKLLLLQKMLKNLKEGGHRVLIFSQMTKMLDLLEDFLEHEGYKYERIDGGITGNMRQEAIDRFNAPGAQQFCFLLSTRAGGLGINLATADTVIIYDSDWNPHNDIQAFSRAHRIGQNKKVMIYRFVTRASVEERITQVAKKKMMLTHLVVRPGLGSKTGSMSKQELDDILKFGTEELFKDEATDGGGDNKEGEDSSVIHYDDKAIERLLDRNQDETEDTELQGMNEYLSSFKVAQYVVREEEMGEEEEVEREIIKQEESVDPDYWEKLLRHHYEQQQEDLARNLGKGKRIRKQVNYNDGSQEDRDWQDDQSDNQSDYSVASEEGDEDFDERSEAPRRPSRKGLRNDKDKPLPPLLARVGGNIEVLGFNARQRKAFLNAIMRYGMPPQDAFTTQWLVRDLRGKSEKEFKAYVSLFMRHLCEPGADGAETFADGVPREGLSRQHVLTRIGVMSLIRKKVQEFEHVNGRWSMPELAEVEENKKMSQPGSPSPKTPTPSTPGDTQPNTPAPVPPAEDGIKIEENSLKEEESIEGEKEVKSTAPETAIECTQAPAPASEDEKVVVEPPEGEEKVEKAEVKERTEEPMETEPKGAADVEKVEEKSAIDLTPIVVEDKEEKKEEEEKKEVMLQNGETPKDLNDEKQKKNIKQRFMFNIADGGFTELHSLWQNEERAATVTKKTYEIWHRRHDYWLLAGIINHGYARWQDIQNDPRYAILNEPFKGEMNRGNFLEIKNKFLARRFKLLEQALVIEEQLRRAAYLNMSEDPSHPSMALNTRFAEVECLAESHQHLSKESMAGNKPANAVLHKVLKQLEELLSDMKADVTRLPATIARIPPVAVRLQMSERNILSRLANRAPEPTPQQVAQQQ

Biological target: Full length human CHD4 tagged at C-terminus with Flag/Myc (human) (UniProt Q14839)
Assay: proximity ligation

B1: TBX5 expressed with CHD4 in HEK-293 cells (protein, UniProt Q99593 1-518)
chain: MADADEGFGLAHTPLEPDAKDLPCDSKPESALGAPSKSPSSPQAAFTQQGMEGIKVFLHERELWLKFHEVGTEMIITKAGRRMFPSYKVKVTGLNPKTKYILLMDIVPADDHRYKFADNKWSVTGKAEPAMPGRLYVHPDSPATGAHWMRQLVSFQKLKLTNNHLDPFGHIILNSMHKYQPRLHIVKADENNGFGSKNTAFCTHVFPETAFIAVTSYQNHKITQLKIENNPFAKGFRGSDDMELHRMSRMQSKEYPVVPRSTVRQKVASNHSPFSSESRALSTSSNLGSQYQCENGVSGPSQDLLPPPNPYPLPQEHSQIYHCTKRKEEECSTTDHPYKKPYMETSPSEEDSFYRSSYPQQQGLGASYRTESAQRQACMYASSAPPSEPVPSLEDISCNTWPSMPSYSSCTVTTVQPMDRLPYQHFSAHFTSGPLVPRLAGMANHGSPQLGEGMFQHQTSVAHQPVVRQCGPQTGLQSPGTLQPPEFLYSHGVPRTLSPHQYHSVHGVGMVPEWSDNS
- binding: binds
